Among all 320,000 compounds or so, about 22,000 (6.9%) were called active. The inconclusive results got no clear call from the source; some entries with a clear call stand among them for comparison. Calls follow the shape of the dose curve; as a rule, active = well fitted inhibition curve with a large enough effect; inconclusive = small, poorly fitted or top-dose-only effect, or another doubt; inactive = no such curve, though single readings can be large or run the other way. Potencies beside an inconclusive call are fits to weak or partial responses and may not hold up.
Test: Primary qHTS for delayed death inhibitors of the malarial parasite plastid, 96 hour incubation
Settings: P. falciparum luciferase reporter growth; series mostly up to 28.7 µM; activity change, negative = inhibition: at the top concentration
Procedure, shortened: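 Parasite growth measured via integrated firefly luciferase reporter in P. falciparum. Infected erythrocytes at 2% hematocrit, 0.05% parasitemia final were treated 96 hours at 37 C under 5% CO2, and luminescence was read.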
% is scaled to controls: 0 for no effect and ±100 for the full control effect; potency is read from the fitted curve at half-maximal effect.

SMILES	Potency	activity change, negative = inhibition
O=C(N/N=C/c1ccc(Sc2ccccn2)o1)c1cc2ccccc2cc1O	inconclusive: 18.5 µM [inhibitor, single point]	–
Cc1cc(C)c(C)c(S(=O)(=O)N2CCN(C(=O)c3ccccn3)CC2)c1C	–	inactive: -16.1%
COc1ccc([N+](=O)[O-])cc1NC(=O)C(C)OC(=O)C1c2ccccc2Oc2ccccc21 (stereo not given)	inconclusive: 18.5 µM [inhibitor, single point]	–
Cc1cc(C(=O)COC(=O)/C=C/c2cccc(F)c2)c(C)n1C	–	inactive: 43.2%
CCOC(=O)[C@H]1[C@H]2COc3ccc(Cl)cc3[C@@H]2N2C(=O)c3ccc(Cl)cc3NC(=O)[C@@]12C	active: 13.1 µM	–
CCCCNC(=O)C(=O)Nc1cc2c3c(c1)CCC(=O)N3CCC2	inconclusive: 18.5 µM [inhibitor, single point]	–
Cc1nc(-c2ccc(Cl)cc2)sc1C(=O)NN	inconclusive: 18.5 µM [inhibitor, single point]	–
O=C(CNC(=O)c1ccco1)Nc1ccc(Cl)cc1	inconclusive: 3.7 µM [inhibitor, full curve, poor fit]	–
CN(C(=O)COC(=O)/C=C/c1ccc2ccccc2n1)C1CCS(=O)(=O)C1 (stereo not given)	inconclusive: 0.0033 µM [inhibitor, full curve, poor fit]	–
CCO[C@@H]1OC(C(=O)NCc2nc3ccccc3[nH]2)=C[C@H](c2ccc(C(F)(F)F)cc2)[C@H]1CCCO	active: 11.7 µM	–
O=C(N/N=C/c1c(O)n(Cc2ccccc2)c(=O)[nH]c1=O)c1ccccc1O	inconclusive: 14.7 µM [inhibitor, single point]	–
O=[N+]([O-])c1ccccc1/C=C/CN1CCN(Cc2ccc3c(c2)OCO3)CC1	–	inactive: 235%
O=C(N/N=C/c1ccco1)c1cc(-c2ccc(Cl)cc2)n[nH]1	–	inactive: -14.1%
O=C(Nc1cccc(Cl)c1)N1CCc2ccccc2C1	inconclusive: 6.57 µM [inhibitor, partial curve, poor fit]	–
CCOC(=O)N1CCC(NC(=O)CC2C(=O)NCCN2Cc2cccc(F)c2F)CC1 (stereo not given)	inconclusive: 7.38 µM [inhibitor, partial curve]	–
CCOc1ccccc1CNc1ccc(O)cc1	inconclusive: 10.4 µM [inhibitor, partial curve, poor fit]	–
CC(C)n1nc(C(=O)Nc2ccccc2N2CCOCC2)c2ccccc2c1=O	inconclusive: 4.15 µM [inhibitor, single point]	–
CN(C)C(=O)c1cc2cc(Br)ccc2s1	inconclusive: 0.233 µM [inhibitor, full curve, poor fit]	–
COC(=O)C(C)n1cnc2c(nnn2-c2ccccc2)c1=O (stereo not given)	–	inactive: 49.4%
CCNC(=O)CC1C(=O)N(c2ccc(F)cc2)C(=O)N1CCc1sccc1C (stereo not given)	inconclusive: 18.5 µM [inhibitor, single point]	–
O=C(NNc1nc2ccc(F)cc2s1)c1cccc(F)c1	inconclusive: 18.5 µM [inhibitor, partial curve, poor fit]	–
Cc1ccc(NC(=O)Nc2ccccc2CC[N+](=O)[O-])cc1	–	inactive: 48.1%
Cc1ccc(C)c(OCc2nnc(N)s2)c1	inconclusive: 1.65 µM [inhibitor, single point]	–

By substructure: those above with an NH in an aromatic ring (3)
SMILES	Potency	activity change, negative = inhibition
CCO[C@@H]1OC(C(=O)NCc2nc3ccccc3[nH]2)=C[C@H](c2ccc(C(F)(F)F)cc2)[C@H]1CCCO	active: 11.7 µM	–
O=C(N/N=C/c1c(O)n(Cc2ccccc2)c(=O)[nH]c1=O)c1ccccc1O	inconclusive: 14.7 µM [inhibitor, single point]	–
O=C(N/N=C/c1ccco1)c1cc(-c2ccc(Cl)cc2)n[nH]1	–	inactive: -14.1%

(more compounds)

SMILES	Potency	activity change, negative = inhibition
S=C(NCc1ccccc1)Nc1cccc(Cl)c1	–	inactive: 27.3%
CCOC(=O)CSc1nc(N)c(C(=O)Nc2ccc(N(C)C)cc2)s1	inconclusive: 10.4 µM [inhibitor, single point]	–
CCOc1ccc(NC(=O)NC2CCCCCCC2)cc1	inconclusive: 0.828 µM [inhibitor, full curve]	–
COC(=O)c1ccc(N)cc1O	active: 10.4 µM	–
CCCCn1nnnc1NCc1cccc(OC)c1OC	inconclusive: 18.5 µM [inhibitor, single point]	–
COc1ccc(C2(NC(C)=O)CCN(C(=O)CCC(=O)O)CC2)cc1	–	inactive: 9.39%
Cc1cc(C)cc(NC(=O)c2ccc([N+](=O)[O-])o2)c1	inconclusive: 18.5 µM [inhibitor, single point]	–
Cc1ccc(C(=O)c2c3ccc(N)cc3nn2CCC(N)=O)cc1	inconclusive: 2.08 µM [inhibitor, partial curve]	–
CSc1cccc(NC(=S)N2CCC(N(C)C(C)C)CC2)c1	inconclusive: 10.4 µM [inhibitor, single point]	–
Cc1nccn1S(=O)(=O)c1ccc(Br)cc1Br	active: 13.1 µM	–
Cc1csc2c(N3CCN(C(=S)Nc4ccc(F)cc4F)CC3)ncnc12	–	inactive: 26.4%
COc1ccccc1NC(=O)Nc1cc(NC(=O)Nc2ccccc2OC)c(C)nc1C	active: 6.57 µM	–
Cc1ccc(NC(=O)CN(C)C(=O)CCSc2ccc(F)cc2)cc1	inconclusive: 5.86 µM [inhibitor, partial curve, poor fit]	–
Oc1[nH]c2ccc(Br)cc2c1N=NC(=S)NCC1CCCO1 (stereo not given)	inconclusive: 2.33 µM [inhibitor, full curve, poor fit]	–
CC(C)N(C(=O)COC(=O)c1ccc([N+](=O)[O-])cc1)c1ccccc1	–	inactive: 1.85%
CCC(CC)C(=O)Nc1nnc(S(=O)(=O)N2CCCC2)s1	inconclusive: 8.28 µM [inhibitor, partial curve]	–
CC1CCN(C(=O)CSc2nc(N)c3c4c(sc3n2)CN(C)CC4)CC1	active: 0.828 µM	–
O=C(O)C1CCCCC1C(=O)Nc1cccc2ccccc12 (stereo not given)	inconclusive: 4.15 µM [inhibitor, partial curve, poor fit]	–
O=C(Nc1ccccc1C(=O)NC(Cc1ccccc1)C(=O)NC1CCCCCC1)c1ccccc1 (stereo not given)	inconclusive: 1.47 µM [inhibitor, partial curve, poor fit]	–
COc1cc(OC)cc(C(=O)NCCS(=O)(=O)N2CCN(Cc3ccccc3)CC2)c1	inconclusive: 18.5 µM [inhibitor, single point]	–
Cc1cc(C)cc(C(=O)NC(CC(N)=O)c2ccc(N3CCCCCC3)c([N+](=O)[O-])c2)c1 (stereo not given)	–	inactive: 4.21%
O=C(CNC(=O)c1ccco1)Nc1ccc(F)c(Cl)c1	inconclusive: 8.28 µM [inhibitor, partial curve, poor fit]	–

— PubChem BioAssay AID504834 (National Center for Advancing Translational Sciences (NCATS), 2011)
